Laboratory results as given in publication doi:10.1101/2021.04.21.440759.
Results are given in words; binding and its absence hold for the method and conditions named. Binding seen in cells or lysates may run through a third protein. Some results given as binding are weak or reduced against the parent protein; the word gives no strength.

Molecular target: DHX9 (human (endogenous in GM06990 and HEK293T)), Q08211
Assay: co-IP
Conditions: remark: other sources report otherwise

binding: binds
B1: Top3β, O95985 1-862 (enzyme)
chain: MKTVLMVAEKPSLAQSIAKILSRGSLSSHKGLNGACSVHEYTGTFAGQPVRFKMTSVCGHVMTLDFLGKYNKWDKVDPAELFSQAPTEKKEANPKLNMVKFLQVEGRGCDYIVLWLDCDKEGENICFEVLDAVLPVMNKAHGGEKTVFRARFSSITDTDICNAMACLGEPDHNEALSVDARQELDLRIGCAFTRFQTKYFQGKYGDLDSSLISFGPCQTPTLGFCVERHDKIQSFKPETYWVLQAKVNTDKDRSLLLDWDRVRVFDREIAQMFLNMTKLEKEAQVEATSRKEKAKQRPLALNTVEMLRVASSSLGMGPQHAMQTAERLYTQGYISYPRTETTHYPENFDLKGSLRQQANHPYWADTVKRLLAEGINRPRKGHDAGDHPPITPMKSATEAELGGDAWRLYEYITRHFIATVSHDCKYLQSTISFRIGPELFTCSGKTVLSPGFTEVMPWQSVPLEESLPTCQRGDAFPVGEVKMLEKQTNPPDYLTEAELITLMEKHGIGTDASIPVHINNICQRNYVTVESGRRLKPTNLGIVLVHGYYKIDAELVLPTIRSAVEKQLNLIAQGKADYRQVLGHTLDVFKRKFHYFVDSIAGMDELMEVSFSPLAATGKPLSRCGKCHRFMKYIQAKPSRLHCSHCDETYTLPQNGTIKLYKELRCPLDDFELVLWSSGSRGKSYPLCPYCYNHPPFRDMKKGMGCNECTHPSCQHSLSMLGIGQCVECESGVLVLDPTSGPKWKVACNKCNVVAHCFENAHRVRVSADTCSVCEAALLDVDFNKAKSPLPGDETQHMGCVFCDPVFQELVELKHAASCHPMHRGGPGRRQGRGRGRARRPPGKPNPRRPKDKMSALAAYFV
